Test results from ChEMBL document CHEMBL5625199, “Discovery of triazole-bridged aryl adamantane analogs as an intriguing class of multifunctional agents for treatment of Alzheimer's disease” (Eur J Med Chem, 2023).

Test: in vitro
Conditions: PAMPA

`COc1cc2c(cc1OC)C(=O)C(CC1CCN(Cc3ccccc3)CC1)C2` (stereo unspecified) [DONEPEZIL] gave a Papp at 18 h, 25 ug/ml of 8.68 ×10⁻⁶ cm/s.
